Measured values published in US20140205553A1, “AGENT FOR ENHANCING THE EFFECT OF SKIN-WHITENING INGREDIENTS AND USES THEREOF” (Hayashibara Co., Ltd., priority 2010, published 2014).
Where “and” joins values, the source holds several entries; their conditions need not be identical. Equal entries are not always repeated. At least one read-out could not be matched to a standard name with certainty.

Tested on: mouse B16 melanoma cells
Test: Melanin formation by mouse B16 melanoma cells cultured with test samples (melanin content, absorbance 450 nm)
Format: cell-based
Settings: 5 days, negative control = 100
Protocol: The effect of nucleic-acid-related compounds on melanin-formation inhibition was evaluated by using mouse B16 melanoma cells frequently used as an index for evaluating skin-whitening agents used in external dermatological agents. Since nucleic-acid-related compounds are roughly classified into purine and pyrimidine compounds, the following respective representative compounds were used as test samples. […] Thereafter, cells were collected after adding trypsin-EDTA to each well and subjecting the resultant to centrifugation. The collected cells were washed once with Dulbecco's PBS (-) (abbreviated as “D-PBS”, hereinafter) and centrifuged to remove the supernatant. To the remaining cell pellet was added 0.5 ml of 1N sodium hydroxide to solubilize the cells. The resulting alkali-solubilized solution was boiled for 30 min and determined for melanin content by the following method. […] Each of these wells was assayed for melanin content similarly as above. […] In this and the following experiments, it means that the lower the melanin formation percentage, the higher the melanin-formation inhibitory effect, i.e., the skin-whitening effect.

[1] = test sample 5 μM in liquid culture medium

## Oc1ccc([C@H]2COc3cc(O)ccc3C2)cc1 [Equol, equol]
[1]
  Melanin formation percentage: 65%

## Nc1nc2nc[nH]c2c(=O)[nH]1 [Guanine]
Test sample 1 μM in liquid culture medium
  Melanin formation percentage: 99%
[1]
  Melanin formation percentage: 99%

## O=c1cc(CO)occ1O [Kojic acid, reference compound]
Test sample 500 μM in liquid culture medium
  Melanin formation percentage: 72%
Test sample 2000 μM in liquid culture medium
  Melanin formation percentage: 27% and 28%
